The values below come from paper PMC10573801.

By UniProt entry, the sequences of proteins in these tests, tags left out. Where a name states a change or a piece, a line headed by the entry shows the natural chain unless it says otherwise.
UniProt P05552: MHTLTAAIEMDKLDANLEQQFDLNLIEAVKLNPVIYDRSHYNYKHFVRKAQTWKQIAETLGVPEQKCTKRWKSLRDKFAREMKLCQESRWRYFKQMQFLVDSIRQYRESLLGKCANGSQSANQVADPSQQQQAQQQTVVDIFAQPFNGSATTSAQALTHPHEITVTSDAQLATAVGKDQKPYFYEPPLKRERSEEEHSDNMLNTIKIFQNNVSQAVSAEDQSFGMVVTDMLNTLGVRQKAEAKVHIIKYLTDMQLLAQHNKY

For the data set, the target named is Adf-1 (UniProt P05552). The data set can be described thus: EMSA. The settings on record: 0.05-0.15 ug protein; 1x PBS pH 8.0, 5 mM MgCl2, 0.1 mM ZnSO4, 1 mM DTT, 0.1% NP-40, 10% glycerol, 1 ng poly(dI-dC), 30 min at room temperature; 60-80 ng Cy5-DNA; 1% agarose in 1x TBE; recombinant protein; protein details: 6xHis (pET32a fusion); label: Cy5; probe letters rebuilt from the primers and the genome.

The exact form of at least one protein or probe is not confirmed.

Consider “GTTGCAACAATCTAATAACAATCCAAGTAATTATCCAAACAAGCGACGGCAAATGTCAAAGAAGGAACCCTAGAAAATACAAAACACGAATACAAGCCCGAAAAAGAAGAAGAAGCGGCGGAAGAACGCACTCAAAATCCGAAAATGAGCCATAAAACCCCAGTGAGAAATGCTACTGCTCTCTAGGCCACGCCCCCTTCACACGGAAGCCATAACGGCAGAACCAAAGTGCCGATAACTCAAAAAGAGAGAGGGCTATTCCAAGTCTGACGTGCGTAAGAGCGAGATACAGATAGGACTACGCGCACCATAATGGCTGCGCCGTAAAGCGAGAGCGATCCGAGCGAGATGGCTAACCGTATCTCTCCCTCTCTCCGCAGTCGCGGCGCAGTCGCTGCCTC (double strand) [bxd PRE Adf-1 binding site]”, for which the binding result is reported as “binds”.
